From publication PMC5055493, “The PilZ domain of MrkH represents a novel DNA binding motif” (Protein & Cell, 2016) come the findings set out here.

The chains behind the UniProt entries cited, without tags or fusion partners. Residues count along the entry.
UniProt G3FT00, residues 1-228: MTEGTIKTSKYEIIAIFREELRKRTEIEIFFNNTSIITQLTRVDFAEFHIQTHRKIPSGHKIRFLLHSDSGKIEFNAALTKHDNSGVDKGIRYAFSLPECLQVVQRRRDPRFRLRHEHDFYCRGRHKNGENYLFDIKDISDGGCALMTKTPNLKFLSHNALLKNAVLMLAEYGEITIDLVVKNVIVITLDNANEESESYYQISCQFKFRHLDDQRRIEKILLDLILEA

Experiment [1] has as its target MrkH (Klebsiella pneumoniae) (UniProt G3FT00). In words: SEC; size-exclusion chromatography of MrkH in the absence of c-di-GMP; absorbance at 280 nm; both purified.
Experiment [2] has the same target. In words: SEC; size-exclusion chromatography of the MrkH/c-di-GMP complex (in the presence of c-di-GMP); absorbance at 280 nm; both purified.

No constants are given. Whether binding was seen depends on the method and setting.

In the case of MrkH (from UniProt G3FT00 1-228), the binding entry in experiment [1] and in experiment [2] was “no binding” each time.
